From the supplement of paper PMC3334620
Over roughly 33,000 sequences, “E-score (-0.5 to 0.5)” has its median near -0.015; the highest 2% begin near 0.3. Some of the results follow.

molecular target: T1, Abf1 (UniProt P14164); test: PBM E-score (8-mer binding enrichment) (E-score (-0.5 to 0.5)); higher = stronger / more preferred TF binding; details: protein concentration: 200 nM; construct: GST-full length
T1 sequence: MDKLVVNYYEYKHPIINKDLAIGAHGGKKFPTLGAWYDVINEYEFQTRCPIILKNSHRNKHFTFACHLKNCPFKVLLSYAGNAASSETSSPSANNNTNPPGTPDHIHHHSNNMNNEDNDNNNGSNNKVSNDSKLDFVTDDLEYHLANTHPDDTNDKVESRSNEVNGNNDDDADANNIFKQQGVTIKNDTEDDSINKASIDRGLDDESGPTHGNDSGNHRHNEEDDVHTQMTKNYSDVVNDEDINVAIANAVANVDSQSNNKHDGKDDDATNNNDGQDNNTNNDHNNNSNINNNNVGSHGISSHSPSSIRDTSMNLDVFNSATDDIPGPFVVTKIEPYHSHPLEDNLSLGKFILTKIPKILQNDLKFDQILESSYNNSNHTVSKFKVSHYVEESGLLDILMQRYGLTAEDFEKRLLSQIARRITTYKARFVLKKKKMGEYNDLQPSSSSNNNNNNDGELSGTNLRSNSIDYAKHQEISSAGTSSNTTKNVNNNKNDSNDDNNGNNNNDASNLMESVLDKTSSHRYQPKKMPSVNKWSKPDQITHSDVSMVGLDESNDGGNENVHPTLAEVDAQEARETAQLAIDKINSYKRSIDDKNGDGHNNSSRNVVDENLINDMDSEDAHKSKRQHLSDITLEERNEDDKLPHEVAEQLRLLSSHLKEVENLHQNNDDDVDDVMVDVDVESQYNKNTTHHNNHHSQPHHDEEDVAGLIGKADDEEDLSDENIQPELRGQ
Method in brief: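 Using PURExpress in vitro transcription/translation, GST-tagged yeast transcription factors were made in full-length or DNA-binding-domain form. These were applied at about 100-200 nM to double-stranded universal all-10-mer Agilent arrays, and bound protein was detected with fluorescent anti-GST. Scans were normalised with masliner before the Universal PBM Analysis Suite assigned E-scores to ungapped eight-base words pooled with their reverse complements.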

Sequence	PBM E-score
CCTGAGAA	-0.0164
AAGAAACG	0.128
GTTATGCA	0.0389
ACCCGGAC	-0.134
AAAAAACA	0.11
ATTATCTA	0.185
GACATGTC	0.187
GGATCCGA	-0.177
GGCTACCC	-0.115
ATCATACC	0.205
GAAGGCGA	-0.153
CGGTTTTC	0.126
ATCGACAT	0.113
ATGTAGGA	0.0486
AGTATATC	0.0567
AAAAGAGC	0.0141
CGTAACTA	0.118
CGTTCGGC	0.0205
CCCGGAAC	-0.125
AACTGTAA	0.0911
GAGGCCGC	-0.168
CTACCATC	-0.252
AGAGCTTA	0.0841
ATCTCATA	0.071
CGCATTAC	0.0726

Sequence	PBM E-score
GCTGCACC	-0.267
CGGACCCG	-0.0838
ACCTCATC	0.0693
CGGGCTTA	-0.0475
GAACTATC	0.0972
CAGAACCG	-0.0771
CTAATCCA	-0.104
CAACAAAC	-0.112
GTGCACAC	0.0386
TAGCCCAA	-0.0858
ACACTCTG	-0.152
ATAGCGCG	-0.0064
ACTCTGCG	0.0935
CCGCCACC	-0.31
GCTTCTCC	-0.201
CGTCAATA	0.185
ATGCGGAC	-0.167
ACAGTGAC	0.259
CATCGGCG	-0.18
TTCGCCAA	-0.0672
CTGGTACC	-0.0127
ATAGTACC	0.00303
GCATAAGA	0.0214
CTCTGGAC	0.0454
CTCGGCTA	-0.134

Sequence	PBM E-score
AGACTCGA	0.0276
ATTTGGCG	0.162
GGTACCAC	-0.2
AGCACTGC	-0.191
AAGTCAGC	0.0842
ACTGTCCT	0.0698
AATTTCGG	-0.0083
AAATTTTG	-0.0483
AATACCAC	0.0643
ATTGCCAG	0.0477
TCGCTAGA	0.046
TGGCTTAA	0.115
AAGGTTCA	-0.0622
CAGAACAC	-0.409
TAACTCTA	-0.0858
GCGCTAGA	0.00806
TTGGCCAA	-0.429
AGGCCGAC	-0.298
AGCACAGC	-0.116
AAGAGTAT	-0.101
CACAAGAC	-0.168
AACAGGCT	-0.0175
CATATCCA	0.0365
CTGTCCGA	-0.0488
CAAATCCC	-0.184

A section taken from the entries so far, for reference:
Sequence	PBM E-score
TCGCTAGA	0.046
TGGCTTAA	0.115

Additional entries follow:

Sequence	PBM E-score
CCTGTGGC	0.0325
AAGCCTGG	-0.315
ATGGATCA	0.122
AGGCTACG	-0.0128
AGTTTTAA	0.12
GCTCCCTA	-0.33
CCTAAACG	-0.0063
GCTCGGAA	-0.0698
GTAAAAAC	0.0597
GCGCGAAA	0.0315
ACCGAACG	0.133
AGCTGTGG	-0.134
CCCTAGAC	0.0508
AGTCCCTG	-0.186
AATGTAGG	-0.184
CTGTTTGA	0.0686
CGCTGTTC	-0.0263
GACTTCGC	0.196
GTTCGTGA	0.254
AAGAGGCC	-0.173
AGCGCCCT	0.0338
GTGACCGA	0.0963
GACCGACC	-0.0208
GGTAGACC	-0.195
AGTACGTA	0.238

Sequence	PBM E-score
CAAAGTGG	-0.238
ACGAAGCG	0.0722
ATCGACGA	0.291
CCGACTAC	-0.119
CACCACTG	-0.144
CTTGCGCC	-0.297
CAGGTCCA	0.025
ATCCCCAC	-0.0733
CCAGGGAC	-0.253
ATGTCTTC	-0.00112
ACCCAAAC	0.0793
CTAGTGAA	-0.202
GCCATTCA	-0.0562
AGCTGCGA	-0.0485
GCTGATGA	0.199
ATTCTTTG	0.0255
ATTAAGGA	0.0257
CAGCGGAG	-0.115
ACCTTCGC	-0.0719
CACGAGTC	0.0257
CTCTAATC	0.0149
GACCGGAC	0.00876
ATATTGAA	0.168
AATCATAG	-0.0288
CAAACGAG	0.165

Sequence	PBM E-score
CAACAGCA	-0.173
TACCTGAA	0.0164
ACAGACCC	-0.224
AGTGGATG	0.013
AACAAGAA	0.237
AACATTCG	0.0942
AATTACCG	0.0216
GTTCAGAA	0.165
AAAGCCCG	-0.178
CGGTGCCA	0.0488
CTGCGCGC	0.0237
GTATTACA	-0.0656
AACTATCA	0.204
TCCGCGCA	-0.0496
AGATGGCA	0.036
ACCTGAGC	-0.0373
ACTCAGAT	0.0372
ACGATTAA	0.274
ACGGCCTA	0.234
AAAGGTGG	-0.116
GGCTGACA	-0.0556
CATTCGGC	-0.0277
TCTATTCA	-0.0146
AGCGGTCA	-0.163
GCGAATCC	-0.115

Sequence	PBM E-score
ACCCGACT	-0.115
AAGCCGAG	-0.106
CGTACATA	0.364
ACGAGAGG	-5e-05
AATACAGA	-0.033
TACTTCTA	0.148
CTCCCTTC	-0.253
CTCTTGAC	0.114
GACGCGAC	-0.0896
GTTTTGTA	0.194
AGCAAGAT	-0.0651
AACGGGTC	-0.0623
CTCAGTCA	-0.14
AGCTGGTA	-0.0722
GGAAATTA	0.0941
GACACGCC	0.0692
GTGGAGGA	0.0354
CTGACTGC	-0.328
ACTAAGGA	-0.0558
TACTCAGA	-0.00166
ATTAGAGC	0.139
ACATCGAT	0.135
GATTTGAA	0.063
CCGTCAAA	0.262
CGGATAGC	-0.0225

Sequence	PBM E-score
TCGCCCGA	-0.251
GAGCCAGA	-0.112
ACAGTCTG	-0.159
GAGAGCCC	-0.176
GACCACTC	0.0428
AGCTCGCA	-0.065
AACTCGCT	-0.17
TACGATAA	0.179
CAAATTTC	0.0187
AGCATCAT	0.0136
ACATACCG	0.247
CTCGCGAA	0.107
GCCTGATA	-0.0778
AAAGGAAG	-0.196
CTAGGCAC	-0.0596
GTACCTCA	0.0875
ATAAGTAA	0.154
CCTCTTCA	-0.17
GTGAGCCA	-0.0111
ATAAATAA	0.246
CAATGGAA	-0.0296
ACGGTTTG	0.0597
AACTTGCA	-0.0257
GCCCCTGA	-0.166
CCGTGAAA	0.381

Sequence	PBM E-score
CTTTACTA	0.116
CGGGATCC	-0.0411
ACATCATA	0.169
CCATCCCC	-0.287
CACATGCG	0.0238
AGCGTGGG	-0.168
AATTAGCC	-0.103
AGATTATG	0.083
ATTACGAG	0.159
CCGGTCCC	-0.146
CTCTTAGA	-0.0928
TCGTCACA	0.282
AGAAAAAC	-0.172
AGATACGA	0.223
ATGGGCTG	-0.153
CACTAGCA	0.00155
GTAACGAC	0.239
CATTCTTC	0.0175
TACCAAAA	0.0276
CGAACCGA	0.126
AGTGGCGG	-0.267
TAGCTCCA	-0.0302
TCGTGCCA	0.226
CAGCCCAA	-0.12
GGCCACGA	-0.151

A second format for part of the listing above:
Sequence | PBM E-score
AGCGTGGG | -0.168
AATTAGCC | -0.103
AGATTATG | 0.083
ATTACGAG | 0.159
CCGGTCCC | -0.146
CTCTTAGA | -0.0928
TCGTCACA | 0.282

Following part:

Sequence	PBM E-score
CCCACTGC	-0.19
TCGGCCAA	-0.102
CGAATGGC	-0.104
CAGGGACG	-0.0727
CCACTTTC	0.0118
ACAGGCCC	-0.369
AACTAAAT	-0.196
AATCACCA	0.24
GGTTTCCA	-0.116
CGTTAGCA	0.0353
AGCATCGG	0.0642
AGCCGGCT	-0.245
AGGATCTG	-0.12
CTTAGCCC	-0.264
AGTTAGTA	0.0677
ACTGCTAC	-0.0013
GACGAAAA	0.337
GCTATAAA	-0.101
CTTAGCAC	0.105
GTTGTTAA	0.158
CGTAAGAG	0.0503
GCTAAGAA	-0.145
ACCATACA	-0.171
CCTGAATC	-0.157
TATGGAGA	0.181

Sequence	PBM E-score
ACGTACCG	0.0986
CGTTCGTA	0.345
GAATGATC	0.32
AGGTACCT	-0.101
CTCGACAA	-0.0758
GTTTTGGA	0.0572
AACCTACG	0.0906
CAATATGG	-0.143
ATCGATAA	0.147
ACCCGTGG	-0.112
CGGGCAAA	0.104
AGGCTTTA	-0.275
ATCCTTAC	-0.094
ATAGATGA	0.212
CAGAGCCA	-0.361
ACACGGAA	0.267
AAAAGTAC	-0.00173
GGTTAGTA	-0.169
ATATACAG	0.187
ACTAGTTC	0.0309
ACCCCTTG	-0.356
ATGTTACA	0.1
CCAGATTA	0.0472
CAGCTTGC	-0.161
GCGAACGC	0.0422

Sequence	PBM E-score
TAAGTTCA	0.0492
CACTGTTC	-0.14
CTAGCAGC	-0.12
GCAGCTAA	0.0902
GAAATTAC	0.119
CGCAGTAA	0.0126
ATCTGCAG	-0.106
GCATCGTA	0.0828
AGTTCGGG	0.0167
GCAGTCTA	-0.0989
CGCGACCG	0.103
GAGAGCGC	-0.184
AAGCTTTC	0.0211
CAAGCCGG	-0.0437
TCGACTCA	-0.0488
ACGCCTAT	-0.157
ATCCGTCA	0.23
AAGTTTCT	0.0716
ATTTCCTA	0.235
TCAGCAAA	0.0617
ACGGGCGG	-0.16
GCATCGCC	-0.0959
GACCGAAC	0.027
ATGAGACA	0.114
AGTGCGTG	0.0167

Sequence	PBM E-score
GAGTGGCC	-0.198
AATGGTTC	0.00999
ACACGTCG	0.132
GGCAAAGA	0.0763
CCTGCGTA	0.0181
AACTGTTA	0.0126
AACCGAGT	-0.0291
CAAAGCTG	-0.136
AAGGTTAT	-0.0209
GGCATACC	-0.0488
ATATGAGC	-0.0829
AGTAGTAC	0.176
CAATAAGC	-0.0209
CCCAATTC	0.152
AGTAAGGA	-0.117
CGTCGAGC	-0.0199
TAACCCAA	0.0926
TCATGGCA	0.0671
GGCAGGGA	-0.142
ACGCGACC	0.0451
CAATCGCG	-0.118
TATGCGCA	-0.0687
AAGGTAAG	-0.17
GTGACTTA	0.244
ACGCCTGA	0.0896

Sequence	PBM E-score
CATTTGGC	-0.0139
GACGGCAA	0.246
CGCAAGCC	0.0644
ACTTTCCT	-0.0527
ATGACTTC	0.183
CCTCATCA	0.227
TCGATTCA	0.0442
ATACGAAT	0.275
CCCACGCC	-0.116
ATCTCTCG	-0.0349
GTTACAGA	-0.136
CATTATAG	-0.0674
GCAGTTAC	-0.0187
ACCGTTAC	0.0659
GACGCCTC	-0.0456
GGGAATTA	0.0268
CACTCTAA	0.0194
CGTAGCTC	0.231
AAGAAGGC	-0.13

A second format for some results above.
Sequence | PBM E-score
CCGTCAAA | 0.262
CGGATAGC | -0.0225
TCGCCCGA | -0.251
